Data on 1 molecule can be found in patent publication US20140256621A1.

This experiment addresses Monkey SA (monkey). The experiment in a line: SPR (BioRad ProteOn XPR36), immobilized albumin.

Results are given in words; binding and its absence hold for the method and conditions named. Binding can be weak; no strength is given.

B1: PEP07986-neutral linker-A500 (Compound 2) (protein)
chain: MGSLAEAKEAANAELDSYGVSDFYKRLIDKAKTVEGVEALKDAILAALPTGGGGSGGGSGGGSGGGSASVPIQKVQDDTKTLIKTIVTRINDISHTQSVSSKQKVTGLEFIPGLHPILTLSKMDQTLAVYQQILTSMPSRNVIQISNDLENLRDLLHVLAFSKSCHLPQASGLETLESLGGVLEASGYSTEVVALSRLQGSLQDMLQQLDLSPGC
As for B1, the binding result is reported as “binds”.
